Here are results for two substances from PMC5352113.

This test has as its target T1, vascular endothelial (VE)-cadherin (human (endogenous in BLM, A375, MDA-MB-468, SKBR3)) (UniProt P33151).
T1 sequence: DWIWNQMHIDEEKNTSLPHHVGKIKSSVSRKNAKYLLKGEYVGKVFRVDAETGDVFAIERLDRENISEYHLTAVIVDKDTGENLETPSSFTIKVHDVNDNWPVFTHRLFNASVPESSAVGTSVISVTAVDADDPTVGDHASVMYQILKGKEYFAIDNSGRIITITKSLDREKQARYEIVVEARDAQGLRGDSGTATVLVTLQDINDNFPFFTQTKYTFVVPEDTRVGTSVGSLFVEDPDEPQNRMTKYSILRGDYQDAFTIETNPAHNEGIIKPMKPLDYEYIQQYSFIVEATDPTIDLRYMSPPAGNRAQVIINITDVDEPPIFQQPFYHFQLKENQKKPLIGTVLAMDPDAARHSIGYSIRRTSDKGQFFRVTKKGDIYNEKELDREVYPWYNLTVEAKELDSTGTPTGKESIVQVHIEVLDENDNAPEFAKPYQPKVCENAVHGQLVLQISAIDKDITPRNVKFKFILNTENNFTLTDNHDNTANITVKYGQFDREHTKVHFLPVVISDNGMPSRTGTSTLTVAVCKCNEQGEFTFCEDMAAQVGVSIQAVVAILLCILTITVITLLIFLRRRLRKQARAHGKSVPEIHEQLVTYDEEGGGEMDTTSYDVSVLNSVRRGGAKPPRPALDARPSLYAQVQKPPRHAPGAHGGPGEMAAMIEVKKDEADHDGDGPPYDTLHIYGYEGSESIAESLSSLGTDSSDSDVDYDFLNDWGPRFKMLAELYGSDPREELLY
Kind of test: co-IP; 500 μg of lysate (1% Igepal, 100 mM NaCl, 2 mM MgCl2, 10% glycerol, 50 mM Tris-HCl) of BLM and MDA-MB-468 cells (Figure 3b also A375 and SKBR3), immunoprecipitated with anti-VE-cadherin, anti-α2 integrin, anti-αv integrin or control antibodies and protein G sepharose; western blot; also after siRNA against α2 or αv integrin. In general terms: Immunoblotting shows a protein as a band on a membrane.

These are yes or no findings as the source states them, for the method shown. In cells and extracts the contact can be indirect. Binding calls can cover weak binding; strength is not graded here.

“αV integrin (human (endogenous in BLM, MDA-MB-468))”: the binding result is recorded as “binds”.
In the case of Ras it was “binds”.
